Assay results from article PMC11239810.

Sequences of proteins named here, by UniProt entry; tags and fusion partners are left off.
UniProt P42224: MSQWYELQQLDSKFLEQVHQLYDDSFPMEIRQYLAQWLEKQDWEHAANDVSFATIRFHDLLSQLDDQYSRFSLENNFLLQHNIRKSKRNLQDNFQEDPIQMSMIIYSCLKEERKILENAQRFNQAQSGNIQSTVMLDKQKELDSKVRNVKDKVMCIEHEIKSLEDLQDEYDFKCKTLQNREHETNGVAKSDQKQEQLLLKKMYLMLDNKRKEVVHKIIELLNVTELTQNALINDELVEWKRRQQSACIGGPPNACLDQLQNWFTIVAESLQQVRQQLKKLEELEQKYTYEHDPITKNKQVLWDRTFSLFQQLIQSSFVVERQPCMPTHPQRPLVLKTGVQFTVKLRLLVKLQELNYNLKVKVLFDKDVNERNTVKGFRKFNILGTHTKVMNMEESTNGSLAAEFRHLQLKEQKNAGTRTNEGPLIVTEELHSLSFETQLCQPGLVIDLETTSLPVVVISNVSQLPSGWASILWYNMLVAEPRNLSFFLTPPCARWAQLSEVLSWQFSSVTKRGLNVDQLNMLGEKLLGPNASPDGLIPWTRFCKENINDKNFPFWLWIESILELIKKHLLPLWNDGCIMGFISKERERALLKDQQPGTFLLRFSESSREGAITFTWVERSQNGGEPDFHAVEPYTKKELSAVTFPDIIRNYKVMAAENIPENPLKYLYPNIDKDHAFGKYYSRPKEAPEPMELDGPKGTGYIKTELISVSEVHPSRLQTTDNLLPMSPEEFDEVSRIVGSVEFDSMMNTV

Molecular target: T1, Myc-tagged TRIM59 (tripartite motif 59) (UniProt Q922Y2)
T1 sequence: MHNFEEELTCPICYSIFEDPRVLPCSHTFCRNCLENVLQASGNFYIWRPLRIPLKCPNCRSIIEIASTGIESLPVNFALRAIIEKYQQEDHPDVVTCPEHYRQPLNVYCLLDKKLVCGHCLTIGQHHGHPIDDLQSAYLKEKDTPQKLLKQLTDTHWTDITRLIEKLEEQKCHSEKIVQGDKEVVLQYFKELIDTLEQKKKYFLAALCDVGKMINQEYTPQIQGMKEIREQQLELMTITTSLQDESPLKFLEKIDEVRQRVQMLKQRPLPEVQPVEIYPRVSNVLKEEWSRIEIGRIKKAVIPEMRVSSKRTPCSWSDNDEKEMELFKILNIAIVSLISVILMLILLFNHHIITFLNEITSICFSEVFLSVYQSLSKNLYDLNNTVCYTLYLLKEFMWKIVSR
Assay: affinity purification with mass spectrometry; HEK293T cells overexpressing Myc-tagged TRIM59; lysed at 4 °C; anti-Myc antibody and Protein G beads; NP-40 lysis buffer (1% NP-40, 50 mM Tris-HCl pH 7.4, 150 mM NaCl); mass spectrometry at BGI

STAT1 (endogenous, HEK293T) (from UniProt P42224 1-750)
binding: binds

These are yes or no findings as the source states them, for the method shown. Binding seen in cells or lysates may run through a third protein. These calls come from enrichment with a bait or labelling near it, and not all partners need be listed. Sequences can lack the tags named with a protein.
